In paper PMC8730729:

What was measured:
Test in all cases: co-IP; GFP nanobody affinity resin IP of EGFP-Rab baits from transiently transfected 293T cells in the presence of GTPγS (2 mM in the lysis buffer); immunoblots with anti-FHIP1B or anti-FHIP2A; 3xHA-sfGFP as control
EGFP-Rab11 (human) = molecular target: EGFP-Rab11 (human)
EGFP-Rab2 (human) = molecular target: EGFP-Rab2 (human)
EGFP-Rab7 (human) = molecular target: EGFP-Rab7 (human)
EGFP-Rab8 (human) = molecular target: EGFP-Rab8 (human)
EGFP-Rab9 (human) = molecular target: EGFP-Rab9 (human)

Measured: binding

B1: FHIP1B, endogenous in 293T cells (protein, UniProt Q8N612 1-972)
chain: MERMNWLSRLASRGPGHRIPQGANLQTPVMADPETCLMVFKNHWSQVVRILERQGPRAAPGGADDLSAVRNHTYQMLTLLAEDRAVPSAPTGPGPLLEFALHEDLLTRVLTWQLQWDELGDGVEERRAEQLKLFEMLVSEARQPLLRHGPVREALLTLLDACGRPVPSSPALDEGLVLLLSQLCVCVAQEPSLLEFFLQPPPEPGAAPRLLLFSRLVPFVHREGTLGQQARDALLLLMALSAGSPTVGRYIADHSYFCPVLATGLSALYSSLPRKIEVPGDDWHCLRREDWLGVPALALFMSSLEFCNAVIQVAHPLVQKQLVDYIHNGFLVPVMGPALHKTSVEEMIASTAYLELFLRSISEPALLRTFLRFLLLHRHDTHTILDTLVARIGSNSRLCMVSLSLFRTLLNLSCEDVLLQLVLRYLVPCNHVMLSQKPAVRDVDLYGRAADKFLSLIPRCCRHHAPSPPRPEHASWARGPGSPSVDSSSVTTVPRPSTPSRLALFLRQQSLGGSESPGPAPCSPGLSASPASSPGRRPTPAEEPGELEDNYLEYLREARRGVDRCVRACRTWSAPYDGERPSPEPSPFGSRTKKRSLLPEEDRNNVGEGEEEELGRRGRAGGAGEGPGHLPPPQLNGVPGSWPEGAKKVRLVPKEGAGELLEGISEGMAGLEGFGQELRELEVALSNGGTGSESPLEPPLPLEEEEAYESFTCPPEPPGPFLSSPLRTLNQLPSQPFTGPFMAVLFAKLENMLQNSVYVNFLLTGLVAQLACHPQPLLRSFLLNTNMVFQPSVKSLLQVLGSVKNKIENFAASQEDFPALLSKAKKYLIARGKLDWAEGPAAGPAPRRSDPLVKSRRPSLGELLLRHAHSPTRARQAAQLVLQPGRDGAGLGLSGGSPGASTPVLLTRGGAPERQGEALRVKNAVYCAVIFPEFLKELAAISQAHAVTSPFLLETSEEGSGPLISGCGPLNP
no binding: all assays above

These are yes or no findings as the source states them, for the method shown. Binding seen in cells or lysates may run through a third protein.
